## Primary screen of a compound library

Amino acid sequences for entries named in this document (tags omitted). Residues count along the entry.
UniProt P9WFT3, whole entry: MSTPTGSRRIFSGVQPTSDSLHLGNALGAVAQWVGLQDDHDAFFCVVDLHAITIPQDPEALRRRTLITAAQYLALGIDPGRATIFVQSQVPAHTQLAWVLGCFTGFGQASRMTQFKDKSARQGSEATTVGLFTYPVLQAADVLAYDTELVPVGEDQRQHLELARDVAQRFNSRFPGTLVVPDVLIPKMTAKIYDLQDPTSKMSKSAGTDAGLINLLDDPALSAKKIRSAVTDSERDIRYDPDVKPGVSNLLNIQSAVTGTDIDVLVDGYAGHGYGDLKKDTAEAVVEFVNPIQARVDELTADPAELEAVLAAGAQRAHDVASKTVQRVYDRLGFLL
UniProt I6X8D2, whole entry: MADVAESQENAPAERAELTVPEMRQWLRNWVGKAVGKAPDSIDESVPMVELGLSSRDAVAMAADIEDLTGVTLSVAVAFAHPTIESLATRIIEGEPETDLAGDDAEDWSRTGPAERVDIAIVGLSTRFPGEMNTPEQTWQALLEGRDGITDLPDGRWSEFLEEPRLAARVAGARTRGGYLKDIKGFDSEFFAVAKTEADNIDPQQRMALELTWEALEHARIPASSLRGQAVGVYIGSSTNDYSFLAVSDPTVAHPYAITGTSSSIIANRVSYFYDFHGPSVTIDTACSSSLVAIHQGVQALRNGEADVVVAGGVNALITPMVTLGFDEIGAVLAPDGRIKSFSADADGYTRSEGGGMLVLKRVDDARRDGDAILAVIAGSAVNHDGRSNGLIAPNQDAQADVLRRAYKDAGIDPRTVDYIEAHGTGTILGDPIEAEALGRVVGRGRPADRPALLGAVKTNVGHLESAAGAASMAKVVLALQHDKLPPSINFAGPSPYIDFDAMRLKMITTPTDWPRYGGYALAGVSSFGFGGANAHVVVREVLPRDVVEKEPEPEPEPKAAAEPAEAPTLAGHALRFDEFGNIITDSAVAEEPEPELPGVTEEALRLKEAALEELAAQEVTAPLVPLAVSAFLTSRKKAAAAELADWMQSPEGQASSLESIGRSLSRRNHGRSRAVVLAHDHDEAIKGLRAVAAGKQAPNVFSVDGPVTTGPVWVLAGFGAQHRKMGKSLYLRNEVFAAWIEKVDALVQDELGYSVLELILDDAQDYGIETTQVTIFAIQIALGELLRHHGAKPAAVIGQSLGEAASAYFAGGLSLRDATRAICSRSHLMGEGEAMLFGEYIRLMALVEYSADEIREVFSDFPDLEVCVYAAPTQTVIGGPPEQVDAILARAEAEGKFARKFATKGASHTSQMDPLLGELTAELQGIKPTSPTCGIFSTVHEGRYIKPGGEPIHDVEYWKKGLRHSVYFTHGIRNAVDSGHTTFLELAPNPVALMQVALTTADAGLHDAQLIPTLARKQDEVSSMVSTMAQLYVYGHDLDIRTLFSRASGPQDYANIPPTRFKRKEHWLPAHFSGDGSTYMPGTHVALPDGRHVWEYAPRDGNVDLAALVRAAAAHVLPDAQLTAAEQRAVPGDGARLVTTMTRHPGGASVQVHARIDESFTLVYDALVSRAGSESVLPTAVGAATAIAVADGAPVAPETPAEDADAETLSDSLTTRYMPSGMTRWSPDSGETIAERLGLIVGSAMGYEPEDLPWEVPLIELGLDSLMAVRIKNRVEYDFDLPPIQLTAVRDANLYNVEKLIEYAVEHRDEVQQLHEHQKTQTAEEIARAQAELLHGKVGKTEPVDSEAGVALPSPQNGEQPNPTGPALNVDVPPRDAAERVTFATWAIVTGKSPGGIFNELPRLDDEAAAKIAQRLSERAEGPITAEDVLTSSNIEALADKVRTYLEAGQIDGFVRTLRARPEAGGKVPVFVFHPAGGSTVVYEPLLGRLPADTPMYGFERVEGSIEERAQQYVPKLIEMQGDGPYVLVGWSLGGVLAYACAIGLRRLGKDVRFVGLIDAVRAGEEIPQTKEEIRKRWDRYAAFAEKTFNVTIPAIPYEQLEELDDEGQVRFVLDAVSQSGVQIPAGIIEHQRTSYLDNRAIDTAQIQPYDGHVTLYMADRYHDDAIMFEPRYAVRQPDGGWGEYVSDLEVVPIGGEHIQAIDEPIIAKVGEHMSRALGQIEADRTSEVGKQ
UniProt Q4DA54, 1-478: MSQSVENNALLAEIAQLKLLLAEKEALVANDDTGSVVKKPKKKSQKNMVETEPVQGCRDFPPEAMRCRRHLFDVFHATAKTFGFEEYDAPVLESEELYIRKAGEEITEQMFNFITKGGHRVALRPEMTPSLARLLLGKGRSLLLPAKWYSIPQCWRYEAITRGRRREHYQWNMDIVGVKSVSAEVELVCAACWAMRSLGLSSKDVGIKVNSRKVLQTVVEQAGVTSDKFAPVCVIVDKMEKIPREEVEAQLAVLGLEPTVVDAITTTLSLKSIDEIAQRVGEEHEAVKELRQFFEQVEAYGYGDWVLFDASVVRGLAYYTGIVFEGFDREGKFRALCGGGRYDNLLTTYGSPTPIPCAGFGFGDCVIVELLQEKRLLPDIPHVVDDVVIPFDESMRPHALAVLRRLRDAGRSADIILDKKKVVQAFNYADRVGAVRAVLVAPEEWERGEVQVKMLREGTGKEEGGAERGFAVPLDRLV

The values are deposited in ChEMBL (CHEMBL3988442, “University of Dundee, Small-Polar-MMV Screening Library” (2021)).

A: 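Enzyme assay of tryptophanyl-tRNA synthetase; the read-out is not stated. Target: Tryptophan-tRNA ligase, Mycobacterium tuberculosis (UniProt P9WFT3). Concentration: 10 µM. Direction is not recorded; retested compounds ran higher, which suggests that high means inhibition. About 65,000 compounds were tested under these conditions; 0.098% (about 64) showed 50% or more at least once.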
B: 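Cell assay of Leishmania donovani living inside macrophages; the read-out is not stated. Compounds at 30 µM. Higher reads as stronger inhibition (inferred: compounds with an IC50 in retests scored well above the rest). Size under these conditions: about 69,000 compounds, about 1,000 of them at 50% or above in at least one test.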
C: 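Polyketide synthase Pks13, Mycobacterium tuberculosis (UniProt I6X8D2). Enzyme assay of the thioesterase domain of polyketide synthase 13; the read-out is not stated. Concentration: 30 µM. Higher reads as stronger inhibition (inferred from which compounds were picked for retests). About 67,000 compounds were tested under these conditions; 0.46% (about 300) showed 50% or more at least once.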
D: 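Histidine-tRNA ligase, Trypanosoma cruzi CL Brener (UniProt Q4DA54). Enzyme assay of histidyl-tRNA synthetase; the read-out is not stated. Tested at 30 µM. Direction is inferred from retests: higher values go with stronger inhibition. About 69,000 compounds were tested under these conditions; 0.045% (about 31) showed 50% or more at least once.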

Results are given as percent effect. The controls that fix the scale are not given in the record; negative values are as filed. Compounds were drawn at random from those tested, without regard to their results. Two or more numbers in one place are separate tests of the same structure; such repeats can differ widely.

Result for CCn1cc(CNc2ccc(F)c(N3CCCS3(=O)=O)c2)cn1 was A: -0.2981%; B: 24.06%; C: -13.87%; D: 7.65%. With COCC(=O)Nc1ccnc(OCCN(C)C)c1 the screen gave A: -1.554%; B: 1.048%; C: 16.32%; D: 5.419%. Result for O=C(NCC1OCCc2cn(CC3CCOCC3)nc21)c1ccsc1.O=C(O)C(F)(F)F (configuration not stated) was B: -18.48% & 9.115%. CCNC(=O)C1CCCN(c2cccc(C(F)(F)F)n2)C1 (configuration not stated) read A: -2.204%; B: 20.55%; C: -16.08%; D: 11.04%.

Result for CN(CCO)CC1COCCN1C(=O)CCC1CCCC1.O=CO (configuration not stated) was B: -18.56%. COCC[C@]1(O)CCN(CC(=O)NCc2ccccc2C)C[C@H]1C read A: 0.9524%; B: 2.263%; C: -16.71%; D: 2.679%. Result for Cc1nc2c(c(N[C@H](C(N)=O)C(C)C)n1)Cc1ccccc1OC2 was A: 6.274%; B: 39.28%; C: -9.937%; D: 8.458%. O=C1CC(NS(=O)(=O)c2ccc(Br)cc2)CN1 (configuration not stated) read A: 2.494%; B: 0.4896%; C: 14.89%; D: 9.548%.

Result for Cc1ccc2c(c1)cc(CN1CC[C@](C)(O)[C@H](C)C1)n2C was A: 1.924%; B: 50.4%; C: 1.338%; D: 2.609%. [H][C@@]12CS(=O)(=O)C[C@]1([H])N(C(=O)c1snnc1C)CCN2CC1CC1 read B: 4.663%. Cc1nn(C)c2nc(N(CCN(C)C)CC3CCCO3)sc12 (configuration not stated) read A: 0.4566%; B: 11.82%; C: -6.618%; D: 5.063%. With CC(=O)NC[C@H]1COCc2nc3c(C)cccc3n21 the screen gave A: 11.91%; B: 4.146%; C: -1.506%; D: 1.087%.

Result for O=C([C@H]1CCCO1)N1Cc2nccn2CC(COc2cccnc2)C1 (some centres not stated) was A: -7.004%; B: 11.74%; C: -14.47%; D: 2.857%. Result for CCc1ccc(C(=O)O)cc1S(=O)(=O)Nc1ccc2c(c1)OCCO2 was A: -6.551%; B: 13.35%; C: -4.361%; D: 3.226%. Result for CC(C)CSc1ccc(-n2cccn2)nn1 was A: -3.707%; B: -30.2%; C: -0.8812%; D: -5.366%. Result for COc1cc(CN2CCCC(Nc3cccc(F)c3)C2)cc(Cl)c1O (configuration not stated) was A: 12.23%; B: -8.606%; C: 9.455%; D: 3.488%.

For Cn1cc(CN2CCc3onc(COc4cccnc4)c3C2)cn1 the result was A: 6.231%; C: 0.1318%; D: 4.918%. With CS(=O)(=O)CCN1CCC2(CCCN(C3CCOCC3)C2=O)C1 (configuration not stated) the screen gave A: -0.2467%; B: 22.34%; C: -17.87%; D: -2.479%. Result for Cc1csc(CNC(=O)N2CCN(Cc3ccco3)CC2)n1 was A: -3.241%; B: 6.404%; C: -1.158%; D: 1.734%. Result for O=C(O)c1cc(NS(=O)(=O)c2cccc(Cl)c2F)ccc1Cl was A: 1.519%; B: -18.67%; C: -3.6%; D: -1.527%.

With NC(=O)NC(CC(=O)N1CCc2sccc2C1)c1cccc(Br)c1 (configuration not stated) the screen gave A: 9.181%; B: -45.93%; C: 3.513%; D: 13.43%. CC(=O)N1CCC2(CC1)CN(CC1CC1)c1ccc(F)cc12 gave B: 8.847%; C: -1.488%; D: 9.548%. O=C(O)C(F)(F)F.[H][C@]12CCC[C@@]1(COCC1CCOCC1)CN(C(=O)c1ccccn1)C2 read B: 25.36%. With Cc1nc(CN2CCCC(Cn3cncn3)C2)no1 (configuration not stated) the screen gave A: 10.55%; B: -19.82%; C: -32%; D: 0.2865%.

O=C(c1cc[nH]n1)N1CC[C@@H]2CN(Cc3cccnc3)S(=O)(=O)[C@@H]2CC1 read A: 3.876%; C: -27.43%; D: 1.075%. With Cc1ccc(C(=O)N2CC[C@H]3[C@@H]2CCC(=O)N3c2cccnc2)o1 the screen gave A: 0.07582%; C: -561.3%; D: 3.061%. Result for CCN(CCn1c(=O)oc2ccccc21)CC1CCOCC1 was A: 2.347%; B: 2.434%; C: 0.8139%; D: 0%. Result for CC(C)=CCNC1CCCN(c2ccc(C)nn2)C1 (configuration not stated) was A: -5.55%; B: 12.81%; C: -21.77%; D: 7.447%.

For Cc1cccc(-c2ccc(C(=O)N3CCN(C4CC4)CC3)c(=O)[nH]2)c1 the result was A: -3.641%; B: -20.53%; C: 23.64%; D: 2.591%. Result for O=C(C1COCCO1)N1CCN(Cc2ccc3c(c2)CCO3)CC1 (configuration not stated) was A: -2.242%; B: 16.28%; C: -7.807%; D: 0%. COCCN1C(=O)[C@]2(CC[C@@H]3CN(C(=O)NC(C)C)C[C@@H]32)N=C1C gave A: 17.19%; C: 4.162%; D: -6.468%.

2 of the entries, repeated:

| compound | A | B | C | D |
|---|---|---|---|---|
| `CS(=O)(=O)CCN1CCC2(CCCN(C3CCOCC3)C2=O)C1` (configuration not stated) | -0.2467 | 22.34 | -17.87 | -2.479 |
| `CCNC(=O)C1CCCN(c2cccc(C(F)(F)F)n2)C1` (configuration not stated) | -2.204 | 20.55 | -16.08 | 11.04 |